PubChem BioAssay AID1508597, Cure First – 2020
This is a random part of the about 2,100 reagents, under one of the conditions tested. 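Calls flag viability under 80% in either arm, not effects specific to rucaparib; the reference for percent is not stated.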 A reagent listed more than once was tested more than once; the source does not tell the runs apart. Reagent sequences are not shown. Not stated in the record: the 100% reference.

Test: 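Genes whose silencing sensitises or protects ovarian cancer cells against rucaparib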 (primary screen)
System: human ovarian carcinoma lines grown from tumours: OCI-P5x (papillary serous) and OCI-C5x (clear cell)
Reagent: siRNA pool against human genes, 1.25 pmol siRNA per well
Timing: 72 h or 96 h, depending on the cell culture
Treatment: rucaparib 20 µM (about IC30) or vehicle, present until read-out
Rucaparib or vehicle: Vehicle
Cell line: OCI-P5x (serous)
Measured: 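ATP luminescence measured at 72 or 96 h according to the culture, then normalised and expressed as percent viability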
Scale: viability, normalised: higher = more viable cells remaining
Active means: 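a well counts as a hit if its normalised viability is under 80 percent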
Meaning of the calls: active = viability under 80%; inactive = viability 80% or more

UCK2 (GeneID 7371), technical replicate 1 scored viability, normalised (%) = 53.2; active.
For UCK2 (GeneID 7371), technical replicate 2, the entry reads viability, normalised (%) = 68.2; active.
With UCK2 (GeneID 7371), technical replicate 3, the entry reads viability, normalised (%) = 52.1; active.
With HFM1 (GeneID 164045), technical replicate 1, the values are viability, normalised (%) = 79.6; active.
HFM1 (GeneID 164045), technical replicate 2 gave viability, normalised (%) = 71.7; active.
With HFM1 (GeneID 164045), technical replicate 3, the entry reads viability, normalised (%) = 84.4; inactive.
For NAGK (GeneID 55577), technical replicate 1 the deposit lists viability, normalised (%) = 76.5; active.
NAGK (GeneID 55577), technical replicate 2 gave viability, normalised (%) = 89; inactive.
With NAGK (GeneID 55577), technical replicate 3, the entry reads viability, normalised (%) = 73.2; active.
With DCLK2 (GeneID 166614), technical replicate 1 the deposit lists viability, normalised (%) = 73.2; active.
For DCLK2 (GeneID 166614), technical replicate 2, the values are viability, normalised (%) = 61.9; active.
For DCLK2 (GeneID 166614), technical replicate 3, the entry reads viability, normalised (%) = 70.2; active.
With CLDN19 (GeneID 149461), technical replicate 1, the entry reads viability, normalised (%) = 38.3; active.
CLDN19 (GeneID 149461), technical replicate 2 scored viability, normalised (%) = 50.2; active.
CLDN19 (GeneID 149461), technical replicate 3 gave viability, normalised (%) = 49.8; active.

Part of the list above, reformatted.
gene knocked down,technical replicate,"viability, normalised (%)",activity call
NAGK (GeneID 55577),2,89,inactive
NAGK (GeneID 55577),3,73.2,active

Continued.
For ZCWPW1 (GeneID 55063), technical replicate 1, the entry reads viability, normalised (%) = 48.4; active.
ZCWPW1 (GeneID 55063), technical replicate 2 gave viability, normalised (%) = 58.9; active.
ZCWPW1 (GeneID 55063), technical replicate 3 scored viability, normalised (%) = 58.9; active.
For BLM (GeneID 641), technical replicate 1, the entry reads viability, normalised (%) = 32.9; active.
With BLM (GeneID 641), technical replicate 1 the deposit lists viability, normalised (%) = 131; inactive.
For BLM (GeneID 641), technical replicate 2 the deposit lists viability, normalised (%) = 127; inactive.
BLM (GeneID 641), technical replicate 2 scored viability, normalised (%) = 48.2; active.
With BLM (GeneID 641), technical replicate 3, the entry reads viability, normalised (%) = 49.3; active.
BLM (GeneID 641), technical replicate 3 gave viability, normalised (%) = 126; inactive.
